Several values for one entry are separate records, joined by “and”; a condition that tells them apart may be missing. Equal entries are not always repeated. The list shows a part of the results. Further columns of the screen follow, without active or inactive calls. Compounds called inactive in the main read-out are mostly missing here. For part of these data: Potencies come from curve fits of mixed quality, noted in brackets.
Tests used:
[1] = qHTS assay for small molecule antagonists of peroxisome proliferator-activated receptor gamma signaling (AID 588537); details: HEK293 PPARg-UAS-bla, beta-lactamase ratio, antagonist mode; measured here: W460 blue channel
How it was run: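 We seeded GeneBLAzer HEK293 reporter cells at 3000 per well, allowed 6-6.5 h attachment at 37 C, then co-treated with test compound titrations and 50 nM rosiglitazone overnight (16 h). Inhibition was quantified from 460/530 nm emission ratios.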

[2] = qHTS assay for small molecule agonists of retinoid X receptor alpha signaling (AID 588544); details: HEK293T RXRa-UAS-bla, beta-lactamase reporter, 18 h; 530 nm emission
[3] = qHTS for identification of novel therapeutic agents for treatment of microphthalmiaassociated transcription factor (MiT) renal cell carcinoma (RCC) (AID 1963991); details: CellTiter-Glo, 48 h; for z-score: stronger effect = lower value
How it was run: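 Curves over 11 concentrations were fitted to CellTiter-Glo luminescence, scaled between empty wells (0%) and DMSO (100%) viability. Cells were UOK109, UOK124 and UOK145 TFE3-fusion RCC lines at 500/well, exposed 48 hours at 37 C.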

[4] = qHTS Assay for Modulators of Human Peripheral Myelin Protein 22 (PMP22) Expression/Activity (AID 1967); details: Cell-based PMP22 reporter, dual-color luciferase ratio
How it was run: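 Mouse MSC80 Schwann cells carrying Pmp22 promoter–green click beetle luciferase plus EF-alpha–red luciferase control, dosed 24 h at 37 °C. Dual-filter luminescence, overlap-corrected; %Activity from green/red ratio normalised to untreated cells, concentration-response curves fitted.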

[5] = qHTS Validation Assay to Find Inhibitors of Chronic Active B-Cell Receptor Signaling (AID 485345); details: ABC-DLBCL cells, chronic BCR signaling reporter; measured here: CBG/CBR ratio read-out
How it was run: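 TMD8 ABC-DLBCL cells with dox-inducible green luciferase–IκBα fusion and red native luciferase; compounds 46 uM–3 nM, 4 h at 37C with doxycycline in 0.5% FBS IMDM. Green/red ratio normalized to basal and 10 uM MG-132.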

[6] = S16 Schwann cell PMP22 intronic element beta-lactamase assay (AID 624044); details: S16 rat Schwann cells, PMP22 element beta-lactamase FRET, 24 h
How it was run: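 Rat S16 Schwann cells with beta-Lac driven by a PMP22 intronic element, compound-treated 24 h at 37 °C. LiveBLAzer FRET B/G read: 460 nm normalized to potassium clavulanate vs DMSO; 535 nm FRET as viability; concentration-effect curves classified.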

[7] = qHTS assay for small molecule antagonists of peroxisome proliferator-activated receptor delta signaling (AID 588535); details: HEK293T PPARd-UAS-bla, beta-lactamase FRET ratio, 18 h; 460 nm channel;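 also: cells co-treated with a PPAR-delta agonist as stimulator during compound exposure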
How it was run: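 Reporter: UAS-bla under PPAR-delta response element, HEK293T host. Medium: 2% charcoal/dextran FBS. Dosing: titration, 18 hrs, 37 C. Detection: CCF4, 2 hrs RT, 405 ex/460 and 530 em.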

[8] = qHTS assay for small molecule antagonists of retinoid X receptor alpha signaling (AID 588546); details: HEK293T RXRa-UAS-bla, beta-lactamase ratio, antagonist mode; measured here: W530 green channel, cytotoxicity proxy;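 also: cells stimulated with 9-cis-retinoic acid as agonist; % is scaled to controls: 0 for no effect and ±100 for the full control effect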
How it was run: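 Beta-lactamase reporter inhibition, read as CCF4 fluorescence ratio (ex 405, em 460/530 nm) after 2 h at RT. HEK293T UAS-bla cells, 2500/well, were stimulated with 9-cis-RA at 500 or 100 nM final alongside test compound for 18 h at 37 C.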

[9] = TFE3-RCC UOK109 viability, measured here: UOK109 Z-AUC
[10] = TFE3-RCC viability, measured here: UOK124 Z-AUC
[11] = TFE3-RCC viability, measured here: UOK124 cell viability
[12] = TFE3-RCC viability, measured here: UOK145 Z-AUC
[13] = TFE3-RCC viability, measured here: UOK145 cell viability
[14] = measured here: red reporter channel AC50, EF-alpha promoter control reporter in MSC80 mouse Schwann cells
[15] = measured here: green reporter channel AC50, mouse Pmp22 promoter in mouse Schwann cells
[16] = measured here: 460 nm blue channel

Cc1cc(SCc2sc(-c3ccc(C(F)(F)F)c(F)c3)nc2C)ccc1OCC(=O)O
AC50 [1]: 7.94 µM [rising, full curve, poor fit]
max response [2]: 103%
z-score [3, 9]: 1.15
z-score [3, 10]: 0.449
AC50 [3, 11]: 11.8 µM [falling, partial curve, poor fit]
z-score [3, 12]: 0.71

CN1CCN(c2ccc([N+](=O)[O-])c3no[n+]([O-])c23)CC1
z-score [3, 9]: 1.05
z-score [3, 10]: 0.0372
AC50 [3, 11]: 37.2 µM [falling, single point]
z-score [3, 12]: 0.322
AC50 [3, 13]: 33.2 µM [falling, single point]

CC(=O)O[C@@]12CO[C@H]1C[C@H](O)[C@@]1(C)C(=O)[C@H](O)C3=C(C)[C@@H](O)C[C@@](O)([C@@H](OC(=O)c4ccccc4)[C@@H]21)C3(C)C
z-score [3, 9]: -0.0307
z-score [3, 10]: 0.00988
AC50 [3, 11]: 10.5 µM [falling, partial curve]
z-score [3, 12]: -0.351
AC50 [3, 13]: 8.33 µM [falling, full curve]

CC[C@@H]1C(=O)OC[C@@H]1Cc1cncn1C
AC50 [4, 14]: 95.3 µM [falling, single point]

O=C(O)Cc1cnc[nH]1
AC50 [4, 14]: 95.3 µM [falling, single point]

C[C@]12N[C@H](Cc3ccccc31)c1ccccc12
AC50 [4, 15]: 95.3 µM [falling, single point]

CC1Cc2cc3c(cc2C(c2ccc(N)cc2)=NN1)OCO3 (centres undefined)
AC50 [4, 14]: 95.3 µM [falling, single point]

CC(O)(CS(=O)(=O)c1ccc(F)cc1)C(=O)Nc1ccc(C#N)c(C(F)(F)F)c1 (centres undefined)
z-score [3, 9]: -0.593
z-score [3, 10]: 0.341
AC50 [3, 11]: 37.2 µM [falling, single point]
z-score [3, 12]: -0.655
AC50 [3, 13]: 5.26 µM [falling, full curve]

CC(C)(C)c1cc(C=C(C#N)C#N)cc(Br)c1O
z-score [3, 9]: 0.139
z-score [3, 10]: 0.314
AC50 [3, 11]: 20.9 µM [falling, partial curve]
z-score [3, 12]: 0.143
AC50 [3, 13]: 20.9 µM [falling, partial curve]

CCCN(CCC)CCc1c[nH]c2ccc(C(N)=O)cc12
AC50 [4, 14]: 37.9 µM [rising, single point]

O=c1[nH]c2ccccc2n1CCCN1CCC(n2c(=O)[nH]c3cc(Cl)ccc32)CC1
AC50 [4, 15]: 37.9 µM [falling, partial curve]
AC50 [4, 14]: 67.5 µM [falling, partial curve]
AC50 [5]: 6.51 µM [falling, partial curve]
z-score [3, 9]: 0.696
z-score [3, 10]: 0.373
AC50 [3, 11]: 23.5 µM [falling, single point]
z-score [3, 12]: 0.715

CO[C@H]1CCC(O[C@H]2C[C@H]([C@]3(C)CC[C@]4(C[C@H](O)[C@@H](C)[C@@H]([C@@H](C)C=C(C)C(=O)[C@H](C)C[C@H](C)C(=O)O)O4)O3)O[C@]3(O[C@@H]([C@H]4O[C@@](O)(CO)[C@H](C)C[C@H]4C)C[C@H]3C)[C@H]2C)O[C@H]1C (some centres undefined)
z-score [3, 9]: -0.9
z-score [3, 10]: -1.16
AC50 [3, 11]: 0.235 µM [falling, full curve]
z-score [3, 12]: -0.208
AC50 [3, 13]: 1.48 µM [falling, full curve]

C[C@](O)(CS(=O)(=O)c1ccc(F)cc1)C(=O)Nc1ccc(C#N)c(C(F)(F)F)c1
AC50 [6, 16]: 14.1 µM [falling, single point]
AC50 ([6]; measured here: 530 nm viability channel): 11.2 µM [falling, single point]
z-score [3, 9]: -1.52
z-score [3, 10]: -0.109
AC50 [3, 11]: 16.6 µM [falling, partial curve]
z-score [3, 12]: -1.13
AC50 [3, 13]: 2.35 µM [falling, full curve]

OCc1cnc[nH]1
AC50 [4, 14]: 84.9 µM [falling, single point]

NC1C=CC=C(C(=O)O)C1 (centres undefined)
AC50 [4, 14]: 23.9 µM [rising, single point]

CCCC[N+]1(C)C2CC(OC(=O)C(CO)c3ccccc3)CC1C1OC12 (centres undefined)
AC50 [4, 14]: 84.9 µM [falling, single point]

CN1C(=O)CCS(=O)(=O)C1c1ccc(Cl)cc1 (centres undefined)
AC50 [4, 14]: 75.7 µM [falling, single point]

N[C@@H](Cc1ccc(N(CCCl)CCCl)cc1)C(=O)O
max response [7]: 107% and -19.3%
AC50 [1]: 50.1 µM [rising, single point]
max response [2]: 79.1% and 38.6%
max response [8]: 27.2% and 35.7%
AC50 [6, 16]: 1.99 µM [falling, partial curve, poor fit]
z-score [3, 9]: 1.07
z-score [3, 10]: 1.98
AC50 [3, 11]: 18.7 µM [falling, partial curve]
z-score [3, 12]: 0.854
AC50 [3, 13]: 18.7 µM [falling, partial curve]

CCOC(=O)c1c(C(C#N)=CN)c2ccc(Cl)c(Cl)c2n1C
z-score [3, 9]: 0.508
z-score [3, 10]: 0.0935
AC50 [3, 11]: 37.2 µM [falling, single point]
z-score [3, 12]: 0.202
AC50 [3, 13]: 37.2 µM [falling, partial curve, poor fit]
